Experimental findings from paper PMC3794157 are described below.

By UniProt entry, the sequences of proteins in these tests, tags left out. Where a name states a change or a piece, a line headed by the entry shows the natural chain unless it says otherwise. Chains listed by the source or under a name are the forms on record and can include a tag or linker. Residues count along the entry.
human fibrillin-1 cbEGF41-43 fragment (residues D2567-V2687), biotinylated, C-terminal BirA tag (P35555, residues 2567-2687): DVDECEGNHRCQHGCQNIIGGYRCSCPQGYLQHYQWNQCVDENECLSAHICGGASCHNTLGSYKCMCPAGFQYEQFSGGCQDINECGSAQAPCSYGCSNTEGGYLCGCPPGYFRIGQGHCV
FUN-EGF3 with N98 substituted with alanine (P35555, form named): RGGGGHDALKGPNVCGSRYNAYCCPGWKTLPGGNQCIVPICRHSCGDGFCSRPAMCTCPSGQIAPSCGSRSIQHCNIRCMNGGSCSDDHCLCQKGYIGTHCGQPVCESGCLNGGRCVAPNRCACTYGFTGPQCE
R159A FUN-EGF3 (P35555, form named): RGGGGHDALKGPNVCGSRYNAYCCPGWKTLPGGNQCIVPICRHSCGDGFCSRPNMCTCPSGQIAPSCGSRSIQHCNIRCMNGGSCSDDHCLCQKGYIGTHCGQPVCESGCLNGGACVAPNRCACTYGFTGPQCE
FUN-EGF3 with D131 substituted with alanine (P35555, form named): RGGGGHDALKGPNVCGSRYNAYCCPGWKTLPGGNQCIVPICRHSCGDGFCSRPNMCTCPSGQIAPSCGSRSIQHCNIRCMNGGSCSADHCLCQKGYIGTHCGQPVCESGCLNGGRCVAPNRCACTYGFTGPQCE

The experiment concerns the target human fibrillin-1 cbEGF41-43 fragment (residues D2567-V2687), biotinylated, C-terminal BirA tag (human) (UniProt P35555). Kind of experiment: pull-down; data not shown: pull-down with immobilised cbEGF41-43 of FUN-EGF3 alanine mutants that the legend of Figure 8D does not name; both purified.

These are yes or no findings as the source states them, for the method shown. Some results given as binding are weak or reduced against the parent protein; the word gives no strength.

Take “FUN-EGF3 with N98 substituted with alanine (from UniProt P35555 45-178) (domain or fragment)”: the binding result is “binds”. The result for “R159A FUN-EGF3 (from UniProt P35555 45-178) (domain or fragment)” reads “binds”; that for “FUN-EGF3 with D131 substituted with alanine (from UniProt P35555 45-178) (domain or fragment)”, “binds”.
